# Data reported in PMC8976838.
# Chains of the proteins cited; added tags and fusions are not shown. Lines headed by an entry give the natural chain unless they say otherwise; changes in a name come on top. Residues count along the entry.
# UniProt Q05086: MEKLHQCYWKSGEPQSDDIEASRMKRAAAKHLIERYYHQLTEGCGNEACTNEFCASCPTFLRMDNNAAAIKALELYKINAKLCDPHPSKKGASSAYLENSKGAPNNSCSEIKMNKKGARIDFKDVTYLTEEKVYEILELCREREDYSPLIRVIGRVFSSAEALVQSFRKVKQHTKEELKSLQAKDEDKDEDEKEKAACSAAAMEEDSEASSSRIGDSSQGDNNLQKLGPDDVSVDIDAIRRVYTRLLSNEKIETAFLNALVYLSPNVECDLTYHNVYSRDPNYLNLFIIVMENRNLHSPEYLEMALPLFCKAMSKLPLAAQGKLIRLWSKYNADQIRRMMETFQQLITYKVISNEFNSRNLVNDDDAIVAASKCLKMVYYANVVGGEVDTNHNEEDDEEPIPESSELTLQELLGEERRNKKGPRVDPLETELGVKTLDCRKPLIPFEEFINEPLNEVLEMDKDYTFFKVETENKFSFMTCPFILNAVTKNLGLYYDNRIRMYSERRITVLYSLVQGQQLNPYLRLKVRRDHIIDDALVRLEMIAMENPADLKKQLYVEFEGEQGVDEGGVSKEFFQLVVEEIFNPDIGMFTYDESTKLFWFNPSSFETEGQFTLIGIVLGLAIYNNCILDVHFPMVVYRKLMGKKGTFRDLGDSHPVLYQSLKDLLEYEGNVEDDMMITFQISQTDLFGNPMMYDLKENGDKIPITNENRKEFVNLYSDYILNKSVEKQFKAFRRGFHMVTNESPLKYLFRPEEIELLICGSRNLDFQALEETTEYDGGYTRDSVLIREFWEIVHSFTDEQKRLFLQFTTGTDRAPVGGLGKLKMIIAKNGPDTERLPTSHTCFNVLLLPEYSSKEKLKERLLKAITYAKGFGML
# GST-UBE3A N-terminus (1–460): residues 1-460 of Q05086
# UniProt O43293: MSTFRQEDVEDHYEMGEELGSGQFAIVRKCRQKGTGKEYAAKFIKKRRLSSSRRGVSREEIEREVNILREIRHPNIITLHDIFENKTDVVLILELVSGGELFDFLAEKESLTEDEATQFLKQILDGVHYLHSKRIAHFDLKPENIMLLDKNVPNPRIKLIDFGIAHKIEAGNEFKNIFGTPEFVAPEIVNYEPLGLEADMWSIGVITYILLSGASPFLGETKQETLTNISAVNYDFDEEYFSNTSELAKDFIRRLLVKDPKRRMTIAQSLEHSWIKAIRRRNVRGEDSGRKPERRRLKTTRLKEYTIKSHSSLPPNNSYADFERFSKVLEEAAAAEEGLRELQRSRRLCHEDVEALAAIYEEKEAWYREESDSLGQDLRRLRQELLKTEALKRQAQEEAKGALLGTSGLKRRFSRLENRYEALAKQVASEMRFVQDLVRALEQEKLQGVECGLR
# UniProt Q86U86: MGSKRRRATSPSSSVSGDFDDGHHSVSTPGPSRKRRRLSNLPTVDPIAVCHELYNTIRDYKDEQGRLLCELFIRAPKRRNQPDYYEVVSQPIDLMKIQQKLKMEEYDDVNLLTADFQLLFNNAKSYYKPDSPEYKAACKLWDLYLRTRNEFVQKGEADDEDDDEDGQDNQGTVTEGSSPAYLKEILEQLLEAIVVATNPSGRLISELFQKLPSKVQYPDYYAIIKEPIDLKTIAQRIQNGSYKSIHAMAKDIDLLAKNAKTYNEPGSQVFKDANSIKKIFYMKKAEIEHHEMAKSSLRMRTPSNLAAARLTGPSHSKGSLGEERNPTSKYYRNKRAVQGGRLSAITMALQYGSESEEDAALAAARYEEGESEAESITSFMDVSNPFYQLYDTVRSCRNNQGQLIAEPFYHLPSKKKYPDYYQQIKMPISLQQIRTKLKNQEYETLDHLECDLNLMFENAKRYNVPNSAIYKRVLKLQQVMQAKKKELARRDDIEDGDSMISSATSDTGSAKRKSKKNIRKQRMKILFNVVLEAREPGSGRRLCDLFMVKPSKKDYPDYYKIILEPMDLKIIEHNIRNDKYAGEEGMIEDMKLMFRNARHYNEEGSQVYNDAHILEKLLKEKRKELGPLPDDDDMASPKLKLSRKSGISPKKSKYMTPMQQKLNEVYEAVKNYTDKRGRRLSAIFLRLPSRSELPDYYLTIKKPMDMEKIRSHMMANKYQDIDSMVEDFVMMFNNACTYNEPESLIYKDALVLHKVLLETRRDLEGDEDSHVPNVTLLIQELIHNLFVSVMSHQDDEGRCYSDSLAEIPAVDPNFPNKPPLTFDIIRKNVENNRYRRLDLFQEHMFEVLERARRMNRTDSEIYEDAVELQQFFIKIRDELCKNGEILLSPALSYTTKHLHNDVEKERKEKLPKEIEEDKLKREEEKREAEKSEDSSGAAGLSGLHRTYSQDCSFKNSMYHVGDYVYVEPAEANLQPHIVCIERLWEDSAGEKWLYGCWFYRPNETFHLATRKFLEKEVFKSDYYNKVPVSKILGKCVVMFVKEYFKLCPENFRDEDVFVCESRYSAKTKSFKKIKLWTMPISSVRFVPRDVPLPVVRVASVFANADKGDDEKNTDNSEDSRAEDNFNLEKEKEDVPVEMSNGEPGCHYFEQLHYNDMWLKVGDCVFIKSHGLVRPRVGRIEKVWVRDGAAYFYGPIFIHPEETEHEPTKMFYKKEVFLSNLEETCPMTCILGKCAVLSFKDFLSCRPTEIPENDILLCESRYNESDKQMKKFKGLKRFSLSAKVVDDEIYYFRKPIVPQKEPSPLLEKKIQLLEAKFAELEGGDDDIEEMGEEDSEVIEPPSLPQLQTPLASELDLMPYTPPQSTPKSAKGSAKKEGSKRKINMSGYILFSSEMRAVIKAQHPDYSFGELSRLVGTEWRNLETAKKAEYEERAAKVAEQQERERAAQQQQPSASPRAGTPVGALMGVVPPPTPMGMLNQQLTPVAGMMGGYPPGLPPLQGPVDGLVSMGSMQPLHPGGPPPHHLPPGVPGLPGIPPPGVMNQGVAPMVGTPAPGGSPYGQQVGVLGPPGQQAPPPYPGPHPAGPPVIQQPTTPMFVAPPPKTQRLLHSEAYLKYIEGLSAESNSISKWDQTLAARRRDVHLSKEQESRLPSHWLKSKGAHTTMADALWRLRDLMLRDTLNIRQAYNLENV
# These are yes or no findings as the source states them, for the method shown. Binding seen in cells or lysates may run through a third protein. Some entries that bind do so weakly or less than the wild type.
# Key:
# [1] = biological target: GST-UBE3A N-terminus (1–460) (UniProt Q05086); experiment: pull-down; GST-fused recombinant proteins (or GST-EV) as bait, 786-O whole-cell lysates, western blotting; only the target purified
# [2] = biological target: GST-DAPK3 recombinant protein (UniProt O43293); experiment: as above
# [3] = biological target: DAPK3, endogenous (human (endogenous in 293T, 786-O and ACHN)) (UniProt O43293); experiment: co-IP; RIPA lysates of 293T, 786-O or ACHN cells with protein A and G agarose beads and primary antibodies or IgG, 24 h at 4 °C, six washes with 1x TBST, western blotting; for PKA with UBE3A: 786-O cells with shControl or shDAPK3 (72 h) or transfected with DAPK3 plasmids (24 h)
binding [1],binding [2],binding [3],Substance
binds,–,–,"Polybromo 1 (PBRM1), endogenous (from UniProt Q86U86 1-1689)"
–,binds,binds,"ubiquitin-protein ligase E3A (UBE3A), endogenous (from UniProt Q05086 1-875) (enzyme)"
